The exact form of at least one protein or probe is not confirmed. The comparison behind a weaker result is the experiment's own reference, which may not be listed here.

Amino acid sequences for entries named in this document (tags omitted). A change or cut given only in a name is not applied to a line headed by its entry.
UniProt P16220: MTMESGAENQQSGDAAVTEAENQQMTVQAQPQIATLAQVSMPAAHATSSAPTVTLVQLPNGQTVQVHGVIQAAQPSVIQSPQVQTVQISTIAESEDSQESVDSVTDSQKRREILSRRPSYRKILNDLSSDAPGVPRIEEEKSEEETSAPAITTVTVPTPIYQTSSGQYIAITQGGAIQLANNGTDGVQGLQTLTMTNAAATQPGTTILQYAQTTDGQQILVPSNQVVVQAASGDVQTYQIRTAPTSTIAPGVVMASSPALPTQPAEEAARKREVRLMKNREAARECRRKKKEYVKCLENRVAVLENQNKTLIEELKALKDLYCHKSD

This data set addresses CREB (recombinant CREB, full-length) (human) (UniProt P16220). Kind of data set: EMSA. The note with it: 25 mM Tris pH 7.5, 200 mM NaCl, 5 mM MgCl2, 1 mM DTT, 5% glycerol, 0.05% Triton X-100, room temperature, 20 min, 4% native gel in 0.5x TBE, recombinant protein.

Turning to “AGAGATTGCCTGACGTCAGAGAGCTAG (double strand) [Cy3-CRE probe]”, the binding result reads like this: (no MMPP, 2 nM probe, 2 ug CREB) “binds”; (plus MMPP (melanin-like nanoparticles), dose-dependent reduction of binding) “binds more weakly”.
